Measurements as given in patent publication US9777014B2, “Tetrahydro-2H-pyrano[3,2-C]isochromene-6-ones and analogs for the treatment of inflammatory disorders” (Council of Scientific & Industrial Research, priority 2013, dated 2017).
Some entries share one result that the patent states for a list of compounds.

Tested on: TNF-α
Experiment: TNF-α production in Con A/LPS stimulated splenocytes (ELISA)
Format: cell-based
Details: relative to bergenin (1), from Table 1
Protocol: Splenocytes were seeded into three to four wells of a 96-well flat-bottom microtiter plate (Nunc) at 2×10^6 cells/ml. Cells were incubated with different concentrations of compounds (0.1 μM-100 μM) along with Con A (2.5 μg/well) or LPS (1 μg/ml) for 72 h at 37° C. with 5% CO2 in CO2 incubator. The culture supernatants were harvested and the measurement of cytokines (TNF-α and IL-6) in the culture supernatants was carried out using commercial kits as per manufacturer's instructions by using ELISA kits (R&D, USA) (Life Sci. 2007, 80, 1525-1538; J. Immunol. Methods 1983, 65, 55-63).

SMILES | fold better activity against TNF-α inhibition [fold]
COc1c(O)c(CN2CCN(C)CC2)c2c(c1O)C1OC(CO)C(O)C(O)C1OC2=O (centres unmarked) [Compound 3, 2,3,4,4a-Tetrahydro-3,4,8,10-tetrahydroxy-2-(hydroxymethyl)-9-methoxy-7-((4-methylpiperazin-1-yl)methyl)pyrano[3,2-c]isochromen-6(10bH)-one] | > 6
CCN(CC)Cc1c(O)c(OC)c(O)c2c1C(=O)OC1C2OC(CO)C(O)C1O (centres unmarked) [Compound 2, 7-((Diethylamino)methyl)-2,3,4,4a-tetrahydro-3,4,8,10-tetrahydroxy-2-(hydroxymethyl)-9-methoxypyrano[3,2-c]isochromen-6(10bH)-one] | > 6
